Test results from patent publication US5750531A, “Pyrimidine derivatives and processes for the preparation thereof” (Yuhan Corporation, priority 1994, dated 1998).

Tested on: proton pump(H^+ /K^+ ATPase)
Assay: Inhibition of proton pump(H^+ /K^+ ATPase) activity
Format: biochemical
Conditions: IC50 omeprazole / IC50 test compound
Protocol: Test 1: Inhibition of proton pump(H^+ /K^+ ATPase) activity
A proton pump enzyme source was prepared by the same method as in Experiment 1-1 of WO 94/14795. Further, the inhibitory effect of proton pump activity was measured by the same method as in Experiment 1-2 of WO 94/14795.
Namely, the proton pump activity stimulated by Mg^++ was used as a negative comparative group, and the activity stimulated by Mg^++ and K^+ was used as a positive comparative group. The comparative compound was omeprazole.
Test tubes were divided into 4 groups: Group 1 as negative comparative group(n=3), Group 2 as positive comparative group(n=3), Group 3(n=5×2) to be administered with the compound of the present invention and Group 4(n=5×2) to be administered with the comparative compound.
The inhibitory effects of Groups 3 and 4 on proton pump activity were measured by employing the compound prepared in Example and omeperazole, respectively, each of which was dissolved in dimethylsulfoxide at 5 different concentrations.
To each of Groups 1, 2, 3 and 4 were added 100 μl of magnesium chloride(40 mM) dissolved in 40 mM Tris-HCl buffer(pH 6.0) and 100μ of the enzyme source. Then, 50μ of potassium chloride(50 mM) and 50 μl of ammonium chloride(6 mM) dissolved in 40 mM Tris-HCl buffer(pH 6.0) were added to all groups except for Group 1.
10 μl of dimethylsulfoxide was added to each of Groups 1 and 2; and to Group 3 was added 10 μl of the solution in which the compound prepared in Example was dissolved in dimethylsulfoxide at 5 different concentrations(n=5×2). To Group 4, 10 μl of the solution prepared by dissolving omeprazole in dimethylsulfoxide at 5 different concentrations(37.6, 21.4, 12.2, 7.0 and 4.0 μM) was added(n=5×2). 40 mM Tris-HCl buffer(pH=6.0) was added thereto so as to make the total volume 400 μl.
Thereafter, the test tubes of each Group were placed at 37° C. for 30 minutes for the preincubation. 100 μl of ATP solution (6.6 mM) was added until the reaction volume became 500 μl. After the reaction was carried out at 37° C. for 30 minutes, 25% cold trichloroacetic acid was added to terminate the enzyme reaction. The released inorganic phosphate was measured by an automatic analyzer(Express 550, Corning).
The difference between Group 1 and Group 2 represents the proton pump activity activated by K^+ only. The inhibition percentages of Groups 3 and 4 were calculated from Litchfield-wilcoxon equation[see, e.g., J. pharmacol. Exp. Ther., 96, 99(1949)]. The concentrations of the test compounds which inhibit 50% of the proton pump activity are represented as IC50 in Table 1.

## Cc1cc(F)ccc1Nc1nccc(N2CCc3ccccc3C2C)n1.Cl (centres unmarked) [Example 1, 2-(2-methyl-4-fluorophenylamino)-4-(1-methyl-1,2,3,4-tetrahydroisoquinolin-2-yl)pyrimidine hydrochloride]
  Effect ratio: 1.08

## Cc1cc(N2CCc3ccccc3C2C)nc(Nc2ccc(F)cc2C)n1.Cl (centres unmarked) [Example 2, 6-methyl-2-(2-methyl-4-fluorophenylamino)-4-(1-methyl-1,2,3,4-tetrahydroisoquinolin-2-yl)pyrimidine hydrochloride]
  Effect ratio: 7.82

## Cc1cc(N2CCc3ccccc3C2C)nc(Nc2ccc(F)cc2)n1.Cl (centres unmarked) [Example 3, 6-methyl-4-(1-methyl-1,2,3,4-tetrahydroisoquinolin-2-yl)-2-(4-fluorophenylamino)pyrimidine hydrochloride]
  Effect ratio: 2.11

## CCc1cc(N2CCc3ccccc3C2C)nc(Nc2ccc(F)cc2C)n1.Cl (centres unmarked) [Example 5, 6-ethyl-2-(2-methyl-4-fluorophenylamino)-4-(1-methyl-1,2,3,4-tetrahydroisoquinolin-2-yl)pyrimidine hydrochloride]
  Effect ratio: 4.91

## CCc1cc(N2CCc3ccccc3C2C)nc(Nc2ccc(F)cc2)n1.Cl (centres unmarked) [Example 6, 6-ethyl-2-(4-fluorophenylamino)-4-(1-methyl-1,2,3,4-tetrahydroisoquinolin-2-yl)pyrimidine hydrochloride]
  Effect ratio: 4.91

## CCc1cc(N2CCc3ccccc3C2C)nc(Nc2ccccc2C)n1.Cl (centres unmarked) [Example 8, 6-ethyl-2-(2-methylphenylamino)-4-(1-methyl-1,2,3,4-tetrahydroisoquinolin-2-yl)pyrimidine hydrochloride]
  Effect ratio: ~ 0.60

## CCCc1cc(N2CCc3ccccc3C2C)nc(Nc2ccc(F)cc2C)n1.Cl (centres unmarked) [Example 9, 2-(2-methyl-4-fluorophenylamino)-4-(1-methyl-1,2,3,4-tetrahydroisoquinolin-2-yl)-6-propylpyrimidine hydrochloride]
  Effect ratio: ~ 1.12

## CCCc1cc(N2CCc3ccccc3C2C)nc(Nc2ccc(F)cc2)n1.Cl (centres unmarked) [Example 10, 4-(1-methyl-1,2,3,4-tetrahydroisoquinolin-2-yl)-6-propyl-2-(4-fluorophenylamino)pyrimidine hydrochloride]
  Effect ratio: 0.69

## Cc1cc(F)ccc1Nc1nc(C)c(C)c(N2CCc3ccccc3C2C)n1.Cl (centres unmarked) [Example 12, 5,6-dimethyl-2-(2-methyl-4-fluorophenylamino)-4-(1-methyl-1,2,3,4-tetrahydroisoquinolin-2-yl)pyrimidine hydrochloride]
  Effect ratio: 9.83

## Cc1cc(F)ccc1Nc1nc(C)c(C)c(N2CCc3ccccc3[C@H]2C)n1.Cl [Example 13, (R)-5,6-Dimethyl-2-(2-methyl-4-fluorophenylamino)-4-(1-methyl-1,2,3,4-tetrahydroisoquinolin-2-yl)pyrimidine hydrochloride]
  Effect ratio: 10.70

## Cc1cc(F)ccc1Nc1nc(C)c(C)c(N2CCc3ccccc3[C@@H]2C)n1.Cl [Example 14, (S)-5,6-dimethyl-2-(2-methyl-4-fluorophenylamino)-4-(1-methyl-1,2,3,4-tetrahydroisoquinolin-2-yl)pyrimidine hydrochloride]
  Effect ratio: 8.70

## Cc1nc(Nc2ccc(F)cc2)nc(N2CCc3ccccc3C2C)c1C.Cl (centres unmarked) [Example 15, 5,6-dimethyl-2-(4-fluorophenylamino)-4-(1-methyl-1,2,3,4-tetrahydroisoquinolin-2-yl)pyrimidine hydrochloride]
  Effect ratio: 3.69

## Cc1nc(Nc2ccc(F)cc2)nc(N2CCc3ccccc3[C@H]2C)c1C.Cl [Example 16, (R)-5,6-dimethyl-2-(4-fluorophenylamino)-4-(1-methyl-1,2,3,4-tetrahydroisoquinolin-2-yl)pyrimidine hydrochloride]
  Effect ratio: 3.80

## Cc1nc(Nc2ccc(F)cc2)nc(N2CCc3ccccc3[C@@H]2C)c1C.Cl [Example 17, (S)-5,6-dimethyl-2-(4-fluorophenylamino)-4-(1-methyl-1,2,3,4-tetrahydroisoquinolin-2-yl)pyrimidine hydrochloride]
  Effect ratio: 3.20
